# In the supplement of paper PMC10849652:
# Protein sequences, listed by entry. Tags and fused reporters are not part of them. Lines headed by an entry give the natural chain unless they say otherwise; changes in a name come on top.
# UniProt P51160: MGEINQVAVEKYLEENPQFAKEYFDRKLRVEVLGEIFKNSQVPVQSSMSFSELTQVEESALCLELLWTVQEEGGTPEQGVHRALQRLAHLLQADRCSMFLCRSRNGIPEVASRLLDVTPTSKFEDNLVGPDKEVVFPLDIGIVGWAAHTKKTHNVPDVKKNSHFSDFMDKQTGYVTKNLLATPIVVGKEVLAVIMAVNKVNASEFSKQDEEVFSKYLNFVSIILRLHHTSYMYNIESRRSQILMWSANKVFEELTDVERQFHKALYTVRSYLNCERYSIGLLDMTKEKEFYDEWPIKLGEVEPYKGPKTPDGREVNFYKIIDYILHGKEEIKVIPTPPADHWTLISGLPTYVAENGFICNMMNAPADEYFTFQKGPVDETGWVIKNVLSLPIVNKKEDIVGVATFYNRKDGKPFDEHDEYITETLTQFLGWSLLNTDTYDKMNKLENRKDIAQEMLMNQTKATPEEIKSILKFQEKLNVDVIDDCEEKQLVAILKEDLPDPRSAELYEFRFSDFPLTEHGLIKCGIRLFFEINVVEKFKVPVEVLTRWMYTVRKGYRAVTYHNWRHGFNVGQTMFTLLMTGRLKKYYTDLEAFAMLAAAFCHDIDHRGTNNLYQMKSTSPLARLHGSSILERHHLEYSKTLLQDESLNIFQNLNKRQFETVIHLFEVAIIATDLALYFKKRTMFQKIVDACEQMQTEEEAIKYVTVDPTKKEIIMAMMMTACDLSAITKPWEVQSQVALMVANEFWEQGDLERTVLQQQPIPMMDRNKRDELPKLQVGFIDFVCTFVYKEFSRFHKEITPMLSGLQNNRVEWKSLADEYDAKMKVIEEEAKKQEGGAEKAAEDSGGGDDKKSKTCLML
# UniProt P30039: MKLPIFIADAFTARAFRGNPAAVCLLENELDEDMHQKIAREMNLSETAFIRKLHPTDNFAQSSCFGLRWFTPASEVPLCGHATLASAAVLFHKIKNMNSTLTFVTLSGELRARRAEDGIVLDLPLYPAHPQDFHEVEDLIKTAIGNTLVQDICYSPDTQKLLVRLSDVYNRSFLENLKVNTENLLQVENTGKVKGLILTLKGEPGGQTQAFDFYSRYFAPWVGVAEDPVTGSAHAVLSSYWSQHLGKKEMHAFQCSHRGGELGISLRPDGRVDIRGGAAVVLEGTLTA
# UniProt Q86SE9: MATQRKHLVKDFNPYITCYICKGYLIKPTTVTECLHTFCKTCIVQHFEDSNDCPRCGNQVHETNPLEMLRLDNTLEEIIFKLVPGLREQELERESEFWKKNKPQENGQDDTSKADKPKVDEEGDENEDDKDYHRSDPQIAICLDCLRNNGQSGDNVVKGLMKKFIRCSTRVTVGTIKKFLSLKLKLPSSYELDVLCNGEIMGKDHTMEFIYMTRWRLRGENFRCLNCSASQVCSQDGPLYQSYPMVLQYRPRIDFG
# UniProt Q8N165: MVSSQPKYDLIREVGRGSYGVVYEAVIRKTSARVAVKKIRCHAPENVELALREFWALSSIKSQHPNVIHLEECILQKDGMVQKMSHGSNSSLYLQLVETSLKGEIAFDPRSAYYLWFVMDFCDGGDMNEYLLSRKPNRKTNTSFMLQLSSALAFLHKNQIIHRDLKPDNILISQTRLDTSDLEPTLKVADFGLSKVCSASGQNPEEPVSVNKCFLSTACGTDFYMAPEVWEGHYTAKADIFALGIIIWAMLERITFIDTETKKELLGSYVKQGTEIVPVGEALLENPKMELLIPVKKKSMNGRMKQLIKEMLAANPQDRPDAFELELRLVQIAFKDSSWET
# UniProt Q9H813: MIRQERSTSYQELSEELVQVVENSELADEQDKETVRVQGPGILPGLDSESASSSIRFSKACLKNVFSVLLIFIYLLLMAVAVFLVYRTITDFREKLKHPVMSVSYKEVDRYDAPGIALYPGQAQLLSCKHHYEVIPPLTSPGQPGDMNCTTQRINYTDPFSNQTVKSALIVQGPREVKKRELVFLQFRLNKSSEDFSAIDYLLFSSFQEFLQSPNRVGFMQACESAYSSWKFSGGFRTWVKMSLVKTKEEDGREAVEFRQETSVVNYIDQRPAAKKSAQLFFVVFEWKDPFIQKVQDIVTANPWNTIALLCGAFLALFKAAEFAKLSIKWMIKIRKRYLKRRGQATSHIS
# UniProt Q8TEW0: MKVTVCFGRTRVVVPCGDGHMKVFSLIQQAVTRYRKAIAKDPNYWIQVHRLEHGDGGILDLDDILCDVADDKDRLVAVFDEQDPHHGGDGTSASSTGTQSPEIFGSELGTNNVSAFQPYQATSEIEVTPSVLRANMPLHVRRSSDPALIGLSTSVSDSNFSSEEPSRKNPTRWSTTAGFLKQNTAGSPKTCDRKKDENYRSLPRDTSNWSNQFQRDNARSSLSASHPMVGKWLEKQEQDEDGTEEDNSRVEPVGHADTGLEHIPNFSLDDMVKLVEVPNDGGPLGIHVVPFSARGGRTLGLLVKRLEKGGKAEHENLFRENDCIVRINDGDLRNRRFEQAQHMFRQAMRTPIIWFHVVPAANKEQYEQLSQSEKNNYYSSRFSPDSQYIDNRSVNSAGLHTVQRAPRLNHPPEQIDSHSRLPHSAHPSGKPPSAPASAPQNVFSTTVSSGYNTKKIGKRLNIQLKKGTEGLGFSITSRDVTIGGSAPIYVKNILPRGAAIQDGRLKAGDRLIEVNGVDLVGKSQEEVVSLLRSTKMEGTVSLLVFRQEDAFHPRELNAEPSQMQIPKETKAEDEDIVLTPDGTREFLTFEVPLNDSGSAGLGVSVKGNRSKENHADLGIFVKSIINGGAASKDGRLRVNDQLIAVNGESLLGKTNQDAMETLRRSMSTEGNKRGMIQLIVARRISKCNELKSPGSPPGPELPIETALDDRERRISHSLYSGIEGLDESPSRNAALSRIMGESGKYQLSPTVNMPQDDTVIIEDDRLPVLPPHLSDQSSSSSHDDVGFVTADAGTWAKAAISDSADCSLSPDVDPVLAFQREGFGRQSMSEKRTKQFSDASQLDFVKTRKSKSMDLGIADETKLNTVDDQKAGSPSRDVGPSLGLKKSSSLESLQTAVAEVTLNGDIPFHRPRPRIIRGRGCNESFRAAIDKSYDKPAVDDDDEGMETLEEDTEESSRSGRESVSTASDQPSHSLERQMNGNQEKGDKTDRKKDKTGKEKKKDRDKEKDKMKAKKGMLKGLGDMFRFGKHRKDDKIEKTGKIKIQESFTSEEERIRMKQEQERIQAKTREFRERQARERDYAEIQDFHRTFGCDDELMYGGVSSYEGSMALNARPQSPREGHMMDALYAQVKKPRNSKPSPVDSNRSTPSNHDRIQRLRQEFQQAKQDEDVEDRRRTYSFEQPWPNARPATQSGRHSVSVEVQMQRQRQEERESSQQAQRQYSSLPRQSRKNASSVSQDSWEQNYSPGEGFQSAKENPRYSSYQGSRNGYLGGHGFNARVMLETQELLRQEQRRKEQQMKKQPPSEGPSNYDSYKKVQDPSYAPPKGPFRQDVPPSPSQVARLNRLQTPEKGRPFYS
# UniProt Q13370: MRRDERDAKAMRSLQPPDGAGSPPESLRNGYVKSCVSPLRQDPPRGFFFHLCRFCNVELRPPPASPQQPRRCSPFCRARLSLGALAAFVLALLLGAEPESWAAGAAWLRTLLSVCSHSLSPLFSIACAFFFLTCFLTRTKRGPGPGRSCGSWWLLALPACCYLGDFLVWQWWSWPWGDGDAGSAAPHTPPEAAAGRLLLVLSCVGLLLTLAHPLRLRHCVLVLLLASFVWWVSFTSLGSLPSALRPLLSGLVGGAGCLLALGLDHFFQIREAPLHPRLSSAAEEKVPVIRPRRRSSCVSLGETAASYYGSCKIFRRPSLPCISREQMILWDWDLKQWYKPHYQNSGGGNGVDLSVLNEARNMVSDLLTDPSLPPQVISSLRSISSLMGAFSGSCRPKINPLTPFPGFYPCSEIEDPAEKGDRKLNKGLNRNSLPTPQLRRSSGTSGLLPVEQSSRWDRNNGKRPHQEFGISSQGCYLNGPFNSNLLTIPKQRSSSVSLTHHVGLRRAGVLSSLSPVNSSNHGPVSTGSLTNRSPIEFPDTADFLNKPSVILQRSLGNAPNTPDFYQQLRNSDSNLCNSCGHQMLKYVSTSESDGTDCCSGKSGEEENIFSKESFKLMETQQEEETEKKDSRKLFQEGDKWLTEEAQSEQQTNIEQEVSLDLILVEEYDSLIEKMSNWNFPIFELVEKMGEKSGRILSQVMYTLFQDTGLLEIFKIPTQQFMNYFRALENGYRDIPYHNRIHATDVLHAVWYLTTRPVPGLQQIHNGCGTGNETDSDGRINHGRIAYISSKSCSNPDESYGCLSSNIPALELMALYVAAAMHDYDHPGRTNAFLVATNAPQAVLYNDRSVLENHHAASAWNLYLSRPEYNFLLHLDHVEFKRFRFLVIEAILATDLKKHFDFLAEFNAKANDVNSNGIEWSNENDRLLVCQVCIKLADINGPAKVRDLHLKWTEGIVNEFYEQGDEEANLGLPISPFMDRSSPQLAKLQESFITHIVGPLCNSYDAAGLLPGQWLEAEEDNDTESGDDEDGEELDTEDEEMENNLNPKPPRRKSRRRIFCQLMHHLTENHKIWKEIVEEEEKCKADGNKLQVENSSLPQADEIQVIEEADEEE
# UniProt Q15154: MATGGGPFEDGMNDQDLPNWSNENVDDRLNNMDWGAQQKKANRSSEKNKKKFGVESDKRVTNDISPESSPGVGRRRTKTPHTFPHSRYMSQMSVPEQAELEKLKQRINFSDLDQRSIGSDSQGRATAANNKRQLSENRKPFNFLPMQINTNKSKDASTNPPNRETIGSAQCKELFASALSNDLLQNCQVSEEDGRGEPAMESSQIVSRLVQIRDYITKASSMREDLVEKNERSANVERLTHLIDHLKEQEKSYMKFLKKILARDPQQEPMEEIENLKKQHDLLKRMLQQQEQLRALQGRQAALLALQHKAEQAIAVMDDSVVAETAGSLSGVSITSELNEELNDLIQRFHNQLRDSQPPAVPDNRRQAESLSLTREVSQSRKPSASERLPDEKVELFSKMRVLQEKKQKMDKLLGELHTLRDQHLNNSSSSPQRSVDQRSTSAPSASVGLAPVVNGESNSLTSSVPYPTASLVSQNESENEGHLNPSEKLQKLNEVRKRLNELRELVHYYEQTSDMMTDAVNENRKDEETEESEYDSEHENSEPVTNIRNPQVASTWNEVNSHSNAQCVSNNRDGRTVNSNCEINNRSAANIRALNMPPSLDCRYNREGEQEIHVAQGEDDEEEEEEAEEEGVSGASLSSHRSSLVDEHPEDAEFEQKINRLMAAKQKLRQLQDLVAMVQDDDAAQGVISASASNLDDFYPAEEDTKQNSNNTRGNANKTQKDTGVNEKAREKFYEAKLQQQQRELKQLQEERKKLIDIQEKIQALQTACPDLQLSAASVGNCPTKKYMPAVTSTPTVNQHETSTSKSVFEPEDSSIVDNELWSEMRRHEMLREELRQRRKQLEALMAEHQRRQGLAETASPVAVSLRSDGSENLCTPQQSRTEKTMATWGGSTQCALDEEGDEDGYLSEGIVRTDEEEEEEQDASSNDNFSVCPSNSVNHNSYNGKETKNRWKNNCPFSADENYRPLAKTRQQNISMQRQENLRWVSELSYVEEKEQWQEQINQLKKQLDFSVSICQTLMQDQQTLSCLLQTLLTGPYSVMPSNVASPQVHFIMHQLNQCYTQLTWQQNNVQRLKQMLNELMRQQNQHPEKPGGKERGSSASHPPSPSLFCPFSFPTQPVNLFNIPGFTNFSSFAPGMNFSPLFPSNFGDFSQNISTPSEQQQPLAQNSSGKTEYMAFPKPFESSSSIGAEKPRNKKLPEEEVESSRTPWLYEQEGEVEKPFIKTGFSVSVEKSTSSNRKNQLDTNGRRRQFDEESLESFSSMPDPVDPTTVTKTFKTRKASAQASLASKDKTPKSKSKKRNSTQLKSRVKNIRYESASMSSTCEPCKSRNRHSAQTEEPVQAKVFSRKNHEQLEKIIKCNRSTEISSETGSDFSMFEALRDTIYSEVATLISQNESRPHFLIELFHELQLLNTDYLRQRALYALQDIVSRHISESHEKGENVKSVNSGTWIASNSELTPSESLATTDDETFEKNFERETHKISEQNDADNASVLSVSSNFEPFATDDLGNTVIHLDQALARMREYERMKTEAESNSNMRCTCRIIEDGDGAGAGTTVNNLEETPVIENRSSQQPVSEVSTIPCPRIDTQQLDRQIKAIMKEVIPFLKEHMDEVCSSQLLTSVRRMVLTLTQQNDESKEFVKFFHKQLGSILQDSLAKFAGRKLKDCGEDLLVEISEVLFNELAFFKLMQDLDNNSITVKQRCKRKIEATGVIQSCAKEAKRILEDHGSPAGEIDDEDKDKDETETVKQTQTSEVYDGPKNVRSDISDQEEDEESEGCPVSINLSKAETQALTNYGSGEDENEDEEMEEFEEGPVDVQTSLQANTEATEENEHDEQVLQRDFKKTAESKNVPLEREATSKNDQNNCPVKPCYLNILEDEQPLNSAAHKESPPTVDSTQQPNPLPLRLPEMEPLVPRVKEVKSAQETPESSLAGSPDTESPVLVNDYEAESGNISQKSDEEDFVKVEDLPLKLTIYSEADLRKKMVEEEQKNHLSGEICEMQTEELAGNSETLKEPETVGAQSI
# The other results are listed elsewhere or left out.
# Compound: Cn1cc(-c2ccc3nnc(C(F)(F)c4ccc5ncccc5c4)n3n2)cn1
# Experiment: log2 fold change, soluble protein after heating vs DMSO (PISA); higher = thermal stabilisation; K562 cells, 10 uM, 30 min; active = over 0.2 and 3.5 SD of the protein, either way, in both replicates (recomputed)
# How it was run: (§1)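 K562 cells at 2×10^6 cells/mL were treated for 30 min with 10 μM compound, and aliquots were heated for 3 min over 48°C-58°C before pooling. Extraction used PBS with 0.5% NP-40 at 4°C, and soluble protein was the supernatant after 21,000xg for 90 min, measured by TMTpro 16plex LC-MS/MS with channel sums equalised. Thermal stability values, relative to control samples and from duplicates, are log2 fold changes.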
row,Target,log2 fold change
1,PAF1 (UniProt Q8N7H5),inactive: -0.025
2,PAFAH2 (UniProt Q99487),inactive: 0.029
3,PAICS (UniProt D6RF62),inactive: -0.084
4,PDE6C (UniProt P51160),inactive: 0.066
5,PCMTD1 (UniProt Q96MG8),inactive: -0.245
6,PACSIN3 (UniProt Q9UKS6),inactive: -0.02
7,PAN3 (UniProt Q58A45),inactive: -0.024
8,PCMTD2 (UniProt Q9NV79),inactive: 0.08
9,PCBP2 (UniProt F8VZX2),inactive: -0.196
10,"PDIA4, A0A499FI48",inactive: -0.088
11,PDE4A (UniProt P27815),inactive: 0.021
12,PBLD (UniProt P30039),inactive: -0.073
13,PCGF5 (UniProt Q86SE9),inactive: 0.142
14,PDIK1L (UniProt Q8N165),inactive: 0.13

# Compound: Cn1cncc1[C@@](N)(c1ccc(Cl)cc1)c1ccc2c(c1)c(-c1cccc(Cl)c1)cc(=O)n2C [tipifarnib]
# Experiment: as above
# How it was run: as §1
row,Target,log2 fold change
1,PACC1 (UniProt Q9H813),inactive: 0.128
2,PAFAH2 (UniProt Q99487),active: 0.611
3,PAICS (UniProt D6RF62),inactive: 0.207
4,PDE6C (UniProt P51160),inactive: -0.139
5,PEX10 isoform 2 (UniProt O60683),inactive: -0.063
6,PCNX1 (UniProt Q96RV3),inactive: 0.305
7,PARD3 (UniProt Q8TEW0),inactive: -0.002
8,PCSK7 (UniProt Q16549),inactive: -0.056
9,PCYT2 (UniProt I3L1F9),inactive: 0.067
10,"PDIA4, A0A499FI48",inactive: 0.188
11,PDE4A (UniProt P27815),inactive: -0.108
12,PBLD (UniProt P30039),inactive: 0.016
13,PDP1 isoform 2 (UniProt Q9P0J1),inactive: -0.075
14,PCNX3 (UniProt Q9H6A9),inactive: 0.131
15,PAFAH1B1 (UniProt I3L3N5),inactive: 0.065
16,PDIK1L (UniProt Q8N165),inactive: -0.152

# Compound: FC(F)(F)c1ccc(/C=C/c2nc(COc3ccc(CCCCn4ccnn4)cc3)co2)cc1 [mubritinib]
# Experiment: as above
# How it was run: as §1
row,Target,log2 fold change
1,PACC1 (UniProt Q9H813),inactive: 0.045
2,PAF1 (UniProt Q8N7H5),inactive: -0.061
3,PDE3B (UniProt Q13370),inactive: -0.338
4,PDE6C (UniProt P51160),inactive: -0.027
5,PEX10 isoform 2 (UniProt O60683),inactive: 0.237
6,PCNX1 (UniProt Q96RV3),inactive: -0.019
7,PDCD2 (UniProt Q16342),inactive: -0.331
8,PALM (UniProt O75781),inactive: 0.04
9,PCMTD2 (UniProt Q9NV79),inactive: 0.031
10,PCBP2 (UniProt F8VZX2),inactive: -0.153
11,"PDIA4, A0A499FI48",inactive: -0.043
12,PBLD (UniProt P30039),inactive: -0.002
13,PAFAH1B1 (UniProt I3L3N5),inactive: 0.061
14,PDIK1L (UniProt Q8N165),inactive: 0.034
15,PCM1 isoform 2 (UniProt Q15154),inactive: -0.163
